Results on eleven molecules are retold here after article PMC6265451.

Sequences of proteins named here, by UniProt entry; tags and fusion partners are left off.
UniProt P32598: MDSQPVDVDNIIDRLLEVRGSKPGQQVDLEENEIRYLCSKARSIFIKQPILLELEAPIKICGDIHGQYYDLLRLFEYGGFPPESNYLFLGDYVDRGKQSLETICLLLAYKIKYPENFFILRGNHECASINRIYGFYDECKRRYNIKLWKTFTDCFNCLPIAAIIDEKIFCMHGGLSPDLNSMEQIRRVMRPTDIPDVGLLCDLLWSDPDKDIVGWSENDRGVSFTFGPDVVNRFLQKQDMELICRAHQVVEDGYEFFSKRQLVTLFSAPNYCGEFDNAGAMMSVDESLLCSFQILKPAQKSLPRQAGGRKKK
UniProt P29468: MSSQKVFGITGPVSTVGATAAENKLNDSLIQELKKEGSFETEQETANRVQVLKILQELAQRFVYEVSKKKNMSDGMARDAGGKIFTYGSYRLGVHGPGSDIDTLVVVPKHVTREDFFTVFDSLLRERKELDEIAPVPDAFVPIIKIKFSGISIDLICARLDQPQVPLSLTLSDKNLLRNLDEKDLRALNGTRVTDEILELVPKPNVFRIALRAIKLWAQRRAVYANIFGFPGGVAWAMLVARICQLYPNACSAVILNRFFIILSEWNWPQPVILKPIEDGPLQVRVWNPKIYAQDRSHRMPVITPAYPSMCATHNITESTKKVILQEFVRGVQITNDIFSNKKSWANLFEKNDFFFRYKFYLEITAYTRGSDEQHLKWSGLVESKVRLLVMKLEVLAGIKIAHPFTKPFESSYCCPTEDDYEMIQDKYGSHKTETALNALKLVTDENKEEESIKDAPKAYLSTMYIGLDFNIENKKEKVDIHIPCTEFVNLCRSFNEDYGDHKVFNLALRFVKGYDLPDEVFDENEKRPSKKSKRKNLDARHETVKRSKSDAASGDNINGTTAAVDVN
UniProt P53538: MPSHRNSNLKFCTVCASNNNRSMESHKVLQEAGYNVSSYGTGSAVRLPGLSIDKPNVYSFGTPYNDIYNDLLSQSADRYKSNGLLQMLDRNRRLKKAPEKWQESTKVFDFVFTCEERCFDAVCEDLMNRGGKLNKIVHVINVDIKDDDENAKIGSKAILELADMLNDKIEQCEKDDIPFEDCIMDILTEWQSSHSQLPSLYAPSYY

The labels stand for the following.
B1: Pti1 (protein, UniProt P39927 1-425)
chain: MTDPRRRTGRHFLTPENLSSTLQITNLPPEWNQDIITSVVAGSGPVIDIKAKNDPRTGKLTGVLFDYLTSKDCKRAWEILNRIENFPVKIEQIIPPNYKDHLRETANKNSQKQVLQLNRDSYPFEAGLELPFEMVTEVPIPRRPPPPQAANNTNSVSNNTNIQFPDILSKASKHLPSFQDGSIIAPDKISQNLSKIPPLQLIEIISNLKILSNQENIQKSQLESFLDTNSDITISVTQALLEMGFIDYSVVTKVLKSQVGEAPSLLSSNNTSNSNTPVSVIRNNTPLHVPSNEVSNNPNNMPLNVAMPMPMSTPPFIPLPLQQQPFGFAPPGPFMPPAQGPSMGQPVLANQLGQVQQQNISSTEGPSNANKANDSGTINMAKLQLLPENQQDMIKQVLTLTPAQIQSLPSDQQLMVENFRKEYII
B2: Cft2 (protein, UniProt Q12102 1-859)
chain: MTYKYNCCDDGSGTTVGSVVRFDNVTLLIDPGWNPSKVSYEQCIKYWEKVIPEIDVIILSQPTIECLGAHSLLYYNFTSHFISRIQVYATLPVINLGRVSTIDSYASAGVIGPYDTNKLDLEDIEISFDHIVPLKYSQLVDLRSRYDGLTLLAYNAGVCPGGSIWCISTYSEKLVYAKRWNHTRDNILNAASILDATGKPLSTLMRPSAIITTLDRFGSSQPFKKRSKIFKDTLKKGLSSDGSVIIPVDMSGKFLDLFTQVHELLFESTKINAHTQVPVLILSYARGRTLTYAKSMLEWLSPSLLKTWENRNNTSPFEIGSRIKIIAPNELSKYPGSKICFVSEVGALINEVIIKVGNSEKTTLILTKPSFECASSLDKILEIVEQDERNWKTFPEDGKSFLCDNYISIDTIKEEPLSKEETEAFKVQLKEKKRDRNKKILLVKRESKKLANGNAIIDDTNGERAMRNQDILVENVNGVPPIDHIMGGDEDDDEEEENDNLLNLLKDNSEKSAAKKNTEVPVDIIIQPSAASKHKMFPFNPAKIKKDDYGTVVDFTMFLPDDSDNVNQNSRKRPLKDGAKTTSPVNEEDNKNEEEDGYNMSDPISKRSKHRASRYSGFSGTGEAENFDNLDYLKIDKTLSKRTISTVNVQLKCSVVILNLQSLVDQRSASIIWPSLKSRKIVLSAPKQIQNEEITAKLIKKNIEVVNMPLNKIVEFSTTIKTLDISIDSNLDNLLKWQRISDSYTVATVVGRLVKESLPQVNNHQKTASRSKLVLKPLHGSSRSHKTGALSIGDVRLAQLKKLLTEKNYIAEFKGEGTLVINEKVAVRKINDAETIIDGTPSELFDTVKKLVTDMLAKI
B3: Syc1 (protein, UniProt Q08553 1-188)
chain: MDLPKDKSDRTHQRINLNNSGTDRTNDLYLHIVQTFGCIETTATENATKLLMLGDVEVEISASSVSIEWTQKSMISQTIADSIVIMIIGLCASDKNVLSESELKERNHNVWKIQELQNLFREQFGDSFSIDEGIGKKENVKNGSVTIGKSKATIDFSTMKLIDCNSNPLKGRVESILSIGQKLTTPLC
B4: Ysh1 (enzyme, UniProt Q06224 1-779)
chain: MERTNTTTFKFFSLGGSNEVGRSCHILQYKGKTVMLDAGIHPAYQGLASLPFYDEFDLSKVDILLISHFHLDHAASLPYVMQRTNFQGRVFMTHPTKAIYRWLLRDFVRVTSIGSSSSSMGTKDEGLFSDEDLVDSFDKIETVDYHSTVDVNGIKFTAFHAGHVLGAAMFQIEIAGLRVLFTGDYSREVDRHLNSAEVPPLSSNVLIVESTFGTATHEPRLNRERKLTQLIHSTVMRGGRVLLPVFALGRAQEIMLILDEYWSQHADELGGGQVPIFYASNLAKKCMSVFQTYVNMMNDDIRKKFRDSQTNPFIFKNISYLRNLEDFQDFGPSVMLASPGMLQSGLSRDLLERWCPEDKNLVLITGYSIEGTMAKFIMLEPDTIPSINNPEITIPRRCQVEEISFAAHVDFQENLEFIEKISAPNIILVHGEANPMGRLKSALLSNFASLKGTDNEVHVFNPRNCVEVDLEFQGVKVAKAVGNIVNEIYKEENVEIKEEIAAKIEPIKEENEDNLDSQAEKGLVDEEEHKDIVVSGILVSDDKNFELDFLSLSDLREHHPDLSTTILRERQSVRVNCKKELIYWHILQMFGEAEVLQDDDRVTNQEPKVKEESKDNLTNTGKLILQIMGDIKLTIVNTLAVVEWTQDLMNDTVADSIIAILMNVDSAPASVKLSSHSCDDHDHNNVQSNAQGKIDEVERVKQISRLFKEQFGDCFTLFLNKDEYASNKEETITGVVTIGKSTAKIDFNNMKILECNSNPLKGRVESLLNIGGNLVTPLC
B5: Swd2 (protein, UniProt P36104 1-329)
chain: MTTVSINKPNLLKFKHVKSFQPQEKDCGPVTSLNFDDNGQFLLTSSSNDTMQLYSATNCKFLDTIASKKYGCHSAIFTHAQNECIYSSTMKNFDIKYLNLETNQYLRYFSGHGALVNDLKMNPVNDTFLSSSYDESVRLWDLKISKPQVIIPSLVPNCIAYDPSGLVFALGNPENFEIGLYNLKKIQEGPFLIIKINDATFSQWNKLEFSNNGKYLLVGSSIGKHLIFDAFTGQQLFELIGTRAFPMREFLDSGSACFTPDGEFVLGTDYDGRIAIWNHSDSISNKVLRPQGFIPCVSHETCPRSIAFNPKYSMFVTADETVDFYVYDE
B6: Pfs2 (protein, UniProt P42841 1-465)
chain: MDGHNQNQYQNQNQIQQSQQPPLKKYVTQRRSVDVSSPYINLYYNRRHGLPNLVVEPETSYTIDIMPPNAYRGRDRVINLPSKFTHLSSNKVKHVIPAIQWTPEGRRLVVATYSGEFSLWNASSFTFETLMQAHDSAVTTMKYSHDSDWMISGDADGMIKIWQPNFSMVKEIDAAHTESIRDMAFSSNDSKFVTCSDDNILKIWNFSNGKQERVLSGHHWDVKSCDWHPEMGLIASASKDNLVKLWDPRSGNCISSILKFKHTVLKTRFQPTKGNLLMAISKDKSCRVFDIRYSMKELMCVRDETDYMTLEWHPINESMFTLACYDGSLKHFDLLQNLNEPILTIPYAHDKCITSLSYNPVGHIFATAAKDRTIRFWTRARPIDPNAYDDPTYNNKKINGWFFGINNDINAVREKSEFGAAPPPPATLEPHALPNMNGFINKKPRQEIPGIDSNIKSSTLPGLSI
B7: Mpe1 (protein, UniProt P35728 1-441)
chain: MSSTIFYRFKSQRNTSRILFDGTGLTVFDLKREIIQENKLGDGTDFQLKIYNPDTEEEYDDDAFVIPRSTSVIVKRSPAIKSFSVHSRLKGNVGAAALGNATRYVTGRPRVLQKRQHTATTTANVSGTTEEERIASMFATQENQWEQTQEEMSAATPVFFKSQTNKNSAQENEGPPPPGYMCYRCGGRDHWIKNCPTNSDPNFEGKRIRRTTGIPKKFLKSIEIDPETMTPEEMAQRKIMITDEGKFVVQVEDKQSWEDYQRKRENRQIDGDETIWRKGHFKDLPDDLKCPLTGGLLRQPVKTSKCCNIDFSKEALENALVESDFVCPNCETRDILLDSLVPDQDKEKEVETFLKKQEELHGSSKDGNQPETKKMKLMDPTGTAGLNNNTSLPTSVNNGGTPVPPVPLPFGIPPFPMFPMPFMPPTATITNPHQADASPKK
B8: Cft1 (protein, UniProt Q06632 1-1357)
chain: MNVYDDVLDATVVSHSLATHFTTSDYEELLVVRTNILSVYRPTRDGKLYLTDEFKFHGLITDIGLIPQKDSPLSCLLLCTGVAKISILKFNTLTNSIDTLSLHYYEGKFKGKSLVELAKISTLRMDPGSSCALLFNNDIIAFLPFHVNKNDDDEEEEDEDENIDDSELIHSMNQKSQGTNTFNKRKRTKLGDKFTAPSVVLVASELYEGAKNIIDIQFLKNFTKPTIALLYQPKLVWAGNTTISKLPTQYVILTLNIQPAESATKIESTTIAFVKELPWDLHTIVPVSNGAIIVGTNELAFLDNTGVLQSTVLLNSFADKELQKTKIINNSSLEIMFREKNTTSIWIPSSKSKNGGSNNDETLLLMDLKSNIYYIQMEAEGRLLIKFDIFKLPIVNDLLKENSNPKCITRLNATNSNKNMDLFIGFGSGNALVLRLNNLKSTIETREAHNPSSGTNSLMDINDDDDEEMDDLYADEAPENGLTTNDSKGTVETVQPFDIELLSSLRNVGPITSLTVGKVSSIDDVVKGLPNPNKNEYSLVATSGNGSGSHLTVIQTSVQPEIELALKFISITQIWNLKIKGRDRYLITTDSTKSRSDIYESDNNFKLHKGGRLRRDATTVYISMFGEEKRIIQVTTNHLYLYDTHFRRLTTIKFDYEVIHVSVMDPYILVTVSRGDIKIFELEEKNKRKLLKVDLPEILNEMVITSGLILKSNMCNEFLIGLSKSQEEQLLFTFVTADNQIIFFTKDHNDRIFQLNGVDQLNESLYISTYQLGDEIVPDPSIKQVMINKLGHDNKEEYLTILTFGGEIYQYRKLPQRRSRFYRNVTRNDLAITGAPDNAYAKGVSSIERIMHYFPDYNGYSVIFVTGSVPYILIKEDDSTPKIFKFGNIPLVSVTPWSERSVMCVDDIKNARVYTLTTDNMYYGNKLPLKQIKISNVLDDYKTLQKLVYHERAQLFLVSYCKRVPYEALGEDGEKVIGYDENVPHAEGFQSGILLINPKSWKVIDKIDFPKNSVVNEMRSSMIQINSKTKRKREYIIAGVANATTEDTPPTGAFHIYDVIEVVPEPGKPDTNYKLKEIFQEEVSGTVSTVCEVSGRFMISQSQKVLVRDIQEDNSVIPVAFLDIPVFVTDSKSFGNLLIIGDAMQGFQFIGFDAEPYRMISLGRSMSKFQTMSLEFLVNGGDMYFAATDADRNVHVLKYAPDEPNSLSGQRLVHCSSFTLHSTNSCMMLLPRNEEFGSPQVPSFQNVGGQVDGSVFKIVPLSEEKYRRLYVIQQQIIDRELQLGGLNPRMERLANDFYQMGHSMRPMLDFNVIRRFCGLAIDRRKSIAQKAGRHAHFEAWRDIINIEFSMRSLCQGK

Results are given in words; binding and its absence hold for the method and conditions named. In cells and extracts the contact can be indirect. A yes stands for co-enrichment or nearness to the bait. Other partners may have been found.

This assay concerns the target T1, Pta1-TAPS (S. cerevisiae) (UniProt Q01329).
T1 sequence: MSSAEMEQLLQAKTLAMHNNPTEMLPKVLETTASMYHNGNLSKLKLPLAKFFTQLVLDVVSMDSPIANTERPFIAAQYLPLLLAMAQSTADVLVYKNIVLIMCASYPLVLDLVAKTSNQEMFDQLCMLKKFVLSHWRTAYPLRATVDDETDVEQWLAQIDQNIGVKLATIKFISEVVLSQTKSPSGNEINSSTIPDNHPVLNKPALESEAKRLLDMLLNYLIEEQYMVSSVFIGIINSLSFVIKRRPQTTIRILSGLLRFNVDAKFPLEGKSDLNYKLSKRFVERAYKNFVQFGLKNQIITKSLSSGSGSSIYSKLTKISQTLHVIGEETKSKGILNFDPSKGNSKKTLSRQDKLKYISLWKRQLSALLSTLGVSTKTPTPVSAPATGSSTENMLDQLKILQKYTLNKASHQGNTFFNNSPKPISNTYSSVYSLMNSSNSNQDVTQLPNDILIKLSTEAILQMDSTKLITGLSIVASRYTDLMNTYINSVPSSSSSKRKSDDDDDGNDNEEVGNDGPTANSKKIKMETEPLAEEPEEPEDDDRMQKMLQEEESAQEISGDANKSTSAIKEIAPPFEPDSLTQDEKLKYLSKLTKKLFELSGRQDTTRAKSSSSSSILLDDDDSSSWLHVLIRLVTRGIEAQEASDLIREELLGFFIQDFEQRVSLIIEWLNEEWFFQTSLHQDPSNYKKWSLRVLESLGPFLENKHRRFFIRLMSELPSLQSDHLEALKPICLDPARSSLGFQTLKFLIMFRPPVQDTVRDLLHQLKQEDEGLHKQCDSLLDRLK
The experiment in a line: affinity purification with mass spectrometry; TAPS tandem affinity purification from tagged yeast: IgG sepharose, TEV protease elution, Streptactin resin, desthiobiotin elution; SDS-PAGE stained with SYPRO Ruby, excised bands identified by tryptic-digest mass spectrometry.
“Glc7 (from UniProt P32598 1-312) (enzyme)”: the binding result was “binds”.

As for “Pap1 (from UniProt P29468 1-568) (enzyme)”, the binding entry is “binds”.

For the molecule “Ssu72 (from UniProt P53538 1-206) (enzyme)”, the binding result was “binds”.

As to B1, the binding result is reported as “binds”.

B2: the binding entry is “binds”.

As to B3, the binding result is on record as “binds”.

In the case of B4, the binding result is “binds”.

Consider B5, for which the binding entry is “binds”.

As for B6, the binding entry was “binds”.

For B7, the binding entry is given as “binds”.

On to B8, for which the binding result is recorded as “binds”.
